Experimental data reported in article PMC10511717.
Results are given in words; binding and its absence hold for the method and conditions named. Some binding calls cover weakened binding; strength is not graded here.

Molecular target: T1, human recombinant RANKL (human) (UniProt O14788)
T1 sequence: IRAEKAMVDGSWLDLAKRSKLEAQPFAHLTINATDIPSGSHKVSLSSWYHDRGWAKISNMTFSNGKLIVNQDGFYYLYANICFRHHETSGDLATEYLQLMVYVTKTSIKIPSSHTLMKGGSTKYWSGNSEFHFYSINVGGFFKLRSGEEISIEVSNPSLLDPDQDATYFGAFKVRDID
Test: ELISA; solid phase binding assay: RANKL bound for 2 h to nickel-coated wells, OMD added overnight at 4 °C, bound OMD detected with biotinylated goat anti-human OMD and streptavidin-POD, read at 450 nm; OMD series on 0.2 μg/mL RANKL, and RANKL series (800 to 6.25 ng/mL) with 0.5 μg/mL OMD; negative controls without RANKL or without OMD; both purified

B1: human recombinant osteomodulin (OMD) (protein, UniProt Q99983 21-421)
chain: QYETYQWDEDYDQEPDDDYQTGFPFRQNVDYGVPFHQYTLGCVSECFCPTNFPSSMYCDNRKLKTIPNIPMHIQQLYLQFNEIEAVTANSFINATHLKEINLSHNKIKSQKIDYGVFAKLPNLLQLHLEHNNLEEFPFPLPKSLERLLLGYNEISKLQTNAMDGLVNLTMLDLCYNYLHDSLLKDKIFAKMEKLMQLNLCSNRLESMPPGLPSSLMYLSLENNSISSIPEKYFDKLPKLHTLRMSHNKLQDIPYNIFNLPNIVELSVGHNKLKQAFYIPRNLEHLYLQNNEIEKMNLTVMCPSIDPLHYHHLTYIRVDQNKLKEPISSYIFFCFPHIHTIYYGEQRSTNGQTIQLKTQVFRRFPDDDDESEDHDDPDNAHESPEQEGAEGHFDLHYYENQE
  binding: binds
